Results taken from PMC10746710.
No constants are given. Whether binding was seen depends on the method and setting. Binding seen in cells or lysates may run through a third protein. A yes stands for co-enrichment or nearness to the bait. Other partners may have been found.

Amino acid sequences for entries named in this document (tags omitted). A change or cut given only in a name is not applied to a line headed by its entry. Chains listed by the source or under a name are the forms on record and can include a tag or linker.
UniProt Q8N6T7: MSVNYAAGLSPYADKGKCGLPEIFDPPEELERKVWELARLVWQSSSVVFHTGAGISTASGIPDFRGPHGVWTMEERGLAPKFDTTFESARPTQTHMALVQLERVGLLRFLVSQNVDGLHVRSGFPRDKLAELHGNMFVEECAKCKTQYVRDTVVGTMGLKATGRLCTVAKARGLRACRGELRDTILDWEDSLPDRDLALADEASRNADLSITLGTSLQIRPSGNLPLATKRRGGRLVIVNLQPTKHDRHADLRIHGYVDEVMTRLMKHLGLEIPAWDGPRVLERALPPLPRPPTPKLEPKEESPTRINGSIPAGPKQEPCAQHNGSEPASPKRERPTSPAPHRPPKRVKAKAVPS
retinoid-related orphan nuclear receptor gamma t (RORγt), endogenous in HBE cells (P51449-2, form named): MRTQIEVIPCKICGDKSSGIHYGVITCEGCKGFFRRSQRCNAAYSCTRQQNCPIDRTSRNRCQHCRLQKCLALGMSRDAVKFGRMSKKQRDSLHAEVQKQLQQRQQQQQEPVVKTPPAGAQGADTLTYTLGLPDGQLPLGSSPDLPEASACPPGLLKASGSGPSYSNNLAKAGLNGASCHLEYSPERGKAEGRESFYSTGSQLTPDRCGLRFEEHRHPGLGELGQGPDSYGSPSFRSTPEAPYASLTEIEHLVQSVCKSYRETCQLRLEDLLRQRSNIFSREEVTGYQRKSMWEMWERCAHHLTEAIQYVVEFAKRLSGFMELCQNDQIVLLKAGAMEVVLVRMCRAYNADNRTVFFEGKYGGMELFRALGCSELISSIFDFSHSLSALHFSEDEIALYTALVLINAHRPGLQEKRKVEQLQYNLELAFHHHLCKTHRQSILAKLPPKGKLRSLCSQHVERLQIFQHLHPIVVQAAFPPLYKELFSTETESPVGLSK

Molecular target: sirtuin 6 (SIRT6), endogenous in HBE cells (human (endogenous in HBE)) (UniProt Q8N6T7)
Assay: affinity purification with mass spectrometry; co-immunoprecipitation of SIRT6, immunoprecipitate digested with trypsin and analysed by mass spectrometry; cells not given

retinoid-related orphan nuclear receptor gamma t (RORγt), endogenous in HBE cells (from UniProt P51449-2 1-497)
binding: binds
